Results on 26 targets are retold here after the supplement of paper PMC12819154, “High-throughput peptide-centric local stability assay extends protein–ligand identification to membrane proteins, tissues and bacteria” (Nature Structural & Molecular Biology, 2025).

Protein sequences, listed by entry. Tags and fused reporters are not part of them. Lines headed by an entry give the natural chain unless they say otherwise; changes in a name come on top.
UniProt Q9UQC2, whole entry: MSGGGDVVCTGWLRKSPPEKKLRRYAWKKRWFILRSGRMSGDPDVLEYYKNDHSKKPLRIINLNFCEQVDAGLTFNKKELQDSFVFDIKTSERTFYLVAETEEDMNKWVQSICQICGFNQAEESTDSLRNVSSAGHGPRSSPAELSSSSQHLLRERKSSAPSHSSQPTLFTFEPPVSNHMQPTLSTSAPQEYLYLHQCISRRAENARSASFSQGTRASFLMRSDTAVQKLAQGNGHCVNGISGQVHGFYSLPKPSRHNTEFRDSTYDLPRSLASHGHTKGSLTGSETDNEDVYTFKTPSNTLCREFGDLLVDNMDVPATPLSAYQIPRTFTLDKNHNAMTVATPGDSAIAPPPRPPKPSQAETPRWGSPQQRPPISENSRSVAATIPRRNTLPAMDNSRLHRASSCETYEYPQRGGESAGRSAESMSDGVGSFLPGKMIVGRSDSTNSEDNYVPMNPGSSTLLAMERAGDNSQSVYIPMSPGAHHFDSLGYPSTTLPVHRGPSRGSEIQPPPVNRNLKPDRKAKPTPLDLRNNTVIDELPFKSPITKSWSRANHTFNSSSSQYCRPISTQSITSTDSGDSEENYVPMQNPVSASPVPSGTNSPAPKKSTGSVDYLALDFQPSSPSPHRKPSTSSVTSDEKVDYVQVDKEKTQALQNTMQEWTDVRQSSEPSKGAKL
UniProt Q9UHV9, whole entry: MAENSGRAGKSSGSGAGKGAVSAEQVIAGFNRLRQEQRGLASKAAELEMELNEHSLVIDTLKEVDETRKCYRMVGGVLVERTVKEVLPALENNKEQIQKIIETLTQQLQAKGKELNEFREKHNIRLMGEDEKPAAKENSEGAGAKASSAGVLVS
UniProt Q9ULG1, whole entry: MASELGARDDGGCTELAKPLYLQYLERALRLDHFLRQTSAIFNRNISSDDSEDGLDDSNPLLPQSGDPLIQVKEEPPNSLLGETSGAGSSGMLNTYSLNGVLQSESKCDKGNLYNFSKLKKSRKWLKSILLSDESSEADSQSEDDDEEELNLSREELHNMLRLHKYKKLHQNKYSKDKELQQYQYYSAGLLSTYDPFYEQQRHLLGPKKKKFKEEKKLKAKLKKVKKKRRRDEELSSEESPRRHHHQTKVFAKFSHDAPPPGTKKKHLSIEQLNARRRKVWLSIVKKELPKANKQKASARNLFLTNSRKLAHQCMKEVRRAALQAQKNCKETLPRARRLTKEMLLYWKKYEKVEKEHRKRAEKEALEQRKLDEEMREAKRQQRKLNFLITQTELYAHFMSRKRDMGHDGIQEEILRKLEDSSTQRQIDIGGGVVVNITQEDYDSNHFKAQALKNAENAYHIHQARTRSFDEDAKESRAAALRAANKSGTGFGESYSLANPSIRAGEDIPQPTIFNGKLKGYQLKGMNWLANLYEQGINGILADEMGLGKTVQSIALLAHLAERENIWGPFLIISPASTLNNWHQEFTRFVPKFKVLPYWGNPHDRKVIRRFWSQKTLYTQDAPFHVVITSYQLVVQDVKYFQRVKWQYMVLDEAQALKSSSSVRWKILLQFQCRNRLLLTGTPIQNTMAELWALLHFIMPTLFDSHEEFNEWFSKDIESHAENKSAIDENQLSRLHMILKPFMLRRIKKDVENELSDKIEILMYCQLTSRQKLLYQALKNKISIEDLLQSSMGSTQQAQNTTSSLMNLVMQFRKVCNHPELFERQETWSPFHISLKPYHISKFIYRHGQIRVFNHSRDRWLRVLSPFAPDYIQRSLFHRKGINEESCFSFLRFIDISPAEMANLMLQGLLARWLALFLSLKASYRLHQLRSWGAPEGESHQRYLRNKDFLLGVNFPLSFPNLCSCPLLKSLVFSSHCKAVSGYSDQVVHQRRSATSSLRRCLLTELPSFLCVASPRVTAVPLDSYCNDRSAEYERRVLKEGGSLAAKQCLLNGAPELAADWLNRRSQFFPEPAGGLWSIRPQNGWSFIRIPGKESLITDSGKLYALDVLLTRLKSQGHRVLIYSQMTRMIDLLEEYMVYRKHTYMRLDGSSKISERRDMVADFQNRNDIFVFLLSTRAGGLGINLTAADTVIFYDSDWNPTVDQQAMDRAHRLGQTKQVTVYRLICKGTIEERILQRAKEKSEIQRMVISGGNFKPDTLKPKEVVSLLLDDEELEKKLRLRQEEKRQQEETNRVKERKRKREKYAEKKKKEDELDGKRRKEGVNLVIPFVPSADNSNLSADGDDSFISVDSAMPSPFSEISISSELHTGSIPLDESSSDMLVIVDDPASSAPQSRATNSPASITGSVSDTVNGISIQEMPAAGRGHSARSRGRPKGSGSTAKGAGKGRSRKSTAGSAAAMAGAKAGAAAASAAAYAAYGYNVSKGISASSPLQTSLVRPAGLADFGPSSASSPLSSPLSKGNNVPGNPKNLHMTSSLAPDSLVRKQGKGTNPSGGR
UniProt Q9UPT5: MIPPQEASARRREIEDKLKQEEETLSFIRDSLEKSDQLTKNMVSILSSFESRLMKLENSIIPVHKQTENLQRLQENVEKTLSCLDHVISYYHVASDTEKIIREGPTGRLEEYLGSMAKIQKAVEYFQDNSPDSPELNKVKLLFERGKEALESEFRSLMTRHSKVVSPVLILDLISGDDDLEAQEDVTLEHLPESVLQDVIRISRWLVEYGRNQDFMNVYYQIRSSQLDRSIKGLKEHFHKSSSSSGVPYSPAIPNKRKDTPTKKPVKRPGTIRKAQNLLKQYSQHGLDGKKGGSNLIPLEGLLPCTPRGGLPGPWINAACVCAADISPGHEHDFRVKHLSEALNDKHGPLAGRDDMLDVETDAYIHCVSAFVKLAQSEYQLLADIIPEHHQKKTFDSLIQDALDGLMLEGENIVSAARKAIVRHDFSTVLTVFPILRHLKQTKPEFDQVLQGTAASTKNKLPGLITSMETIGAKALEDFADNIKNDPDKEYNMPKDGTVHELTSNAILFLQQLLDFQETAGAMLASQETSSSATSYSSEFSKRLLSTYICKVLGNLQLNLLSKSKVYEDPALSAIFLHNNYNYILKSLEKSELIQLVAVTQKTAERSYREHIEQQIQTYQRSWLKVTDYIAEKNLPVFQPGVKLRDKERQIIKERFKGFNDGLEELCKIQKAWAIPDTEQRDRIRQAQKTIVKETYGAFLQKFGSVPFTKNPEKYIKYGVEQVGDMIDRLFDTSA
UniProt Q9UKU7: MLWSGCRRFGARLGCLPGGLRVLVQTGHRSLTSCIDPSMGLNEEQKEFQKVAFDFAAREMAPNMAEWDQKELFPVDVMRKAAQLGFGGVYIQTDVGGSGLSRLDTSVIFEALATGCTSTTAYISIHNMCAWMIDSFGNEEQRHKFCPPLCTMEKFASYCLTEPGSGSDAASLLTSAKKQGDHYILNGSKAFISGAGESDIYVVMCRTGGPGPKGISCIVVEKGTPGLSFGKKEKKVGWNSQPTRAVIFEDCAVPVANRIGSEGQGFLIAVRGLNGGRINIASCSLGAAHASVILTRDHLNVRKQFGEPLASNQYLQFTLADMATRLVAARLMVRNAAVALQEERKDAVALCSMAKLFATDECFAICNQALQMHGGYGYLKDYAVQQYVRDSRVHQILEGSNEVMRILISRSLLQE
UniProt Q9UM13, whole entry: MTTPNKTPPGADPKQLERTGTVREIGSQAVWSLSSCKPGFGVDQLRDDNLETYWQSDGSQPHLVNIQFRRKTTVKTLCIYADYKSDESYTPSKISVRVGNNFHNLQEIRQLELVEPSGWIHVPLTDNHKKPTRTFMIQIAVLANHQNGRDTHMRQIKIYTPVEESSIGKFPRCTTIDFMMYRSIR
UniProt Q9UIU6: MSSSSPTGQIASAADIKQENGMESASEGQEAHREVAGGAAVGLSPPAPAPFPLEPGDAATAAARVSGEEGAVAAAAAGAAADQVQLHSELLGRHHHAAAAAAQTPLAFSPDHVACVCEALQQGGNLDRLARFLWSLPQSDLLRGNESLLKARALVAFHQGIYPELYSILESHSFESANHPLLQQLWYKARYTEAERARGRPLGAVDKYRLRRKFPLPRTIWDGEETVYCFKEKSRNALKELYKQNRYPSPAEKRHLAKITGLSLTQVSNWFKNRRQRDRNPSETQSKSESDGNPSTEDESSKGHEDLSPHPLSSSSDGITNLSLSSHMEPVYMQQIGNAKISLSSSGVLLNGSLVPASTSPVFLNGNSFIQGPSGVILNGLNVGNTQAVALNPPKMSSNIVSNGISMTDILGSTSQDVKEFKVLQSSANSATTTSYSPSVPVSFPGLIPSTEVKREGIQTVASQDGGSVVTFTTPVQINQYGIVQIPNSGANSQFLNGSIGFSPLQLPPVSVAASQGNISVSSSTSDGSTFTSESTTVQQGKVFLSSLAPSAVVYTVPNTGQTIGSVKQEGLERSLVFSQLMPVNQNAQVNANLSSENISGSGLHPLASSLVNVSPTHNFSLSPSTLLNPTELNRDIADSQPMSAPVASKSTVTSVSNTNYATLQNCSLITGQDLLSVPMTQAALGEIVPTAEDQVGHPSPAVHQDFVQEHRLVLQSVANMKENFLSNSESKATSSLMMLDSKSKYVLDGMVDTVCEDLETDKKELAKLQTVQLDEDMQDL
UniProt Q9Y224: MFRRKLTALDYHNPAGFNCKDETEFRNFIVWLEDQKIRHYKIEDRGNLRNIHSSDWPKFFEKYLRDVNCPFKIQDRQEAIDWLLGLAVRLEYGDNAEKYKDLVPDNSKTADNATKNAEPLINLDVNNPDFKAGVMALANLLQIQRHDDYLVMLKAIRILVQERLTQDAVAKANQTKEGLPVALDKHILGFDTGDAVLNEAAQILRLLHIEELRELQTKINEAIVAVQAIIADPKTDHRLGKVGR
UniProt Q9UKL6: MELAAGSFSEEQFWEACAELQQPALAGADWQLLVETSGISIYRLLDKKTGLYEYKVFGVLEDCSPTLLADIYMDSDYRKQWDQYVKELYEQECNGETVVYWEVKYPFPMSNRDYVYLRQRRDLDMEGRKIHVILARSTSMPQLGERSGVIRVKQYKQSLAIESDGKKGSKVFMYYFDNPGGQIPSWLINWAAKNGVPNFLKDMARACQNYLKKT
UniProt Q9UPN6: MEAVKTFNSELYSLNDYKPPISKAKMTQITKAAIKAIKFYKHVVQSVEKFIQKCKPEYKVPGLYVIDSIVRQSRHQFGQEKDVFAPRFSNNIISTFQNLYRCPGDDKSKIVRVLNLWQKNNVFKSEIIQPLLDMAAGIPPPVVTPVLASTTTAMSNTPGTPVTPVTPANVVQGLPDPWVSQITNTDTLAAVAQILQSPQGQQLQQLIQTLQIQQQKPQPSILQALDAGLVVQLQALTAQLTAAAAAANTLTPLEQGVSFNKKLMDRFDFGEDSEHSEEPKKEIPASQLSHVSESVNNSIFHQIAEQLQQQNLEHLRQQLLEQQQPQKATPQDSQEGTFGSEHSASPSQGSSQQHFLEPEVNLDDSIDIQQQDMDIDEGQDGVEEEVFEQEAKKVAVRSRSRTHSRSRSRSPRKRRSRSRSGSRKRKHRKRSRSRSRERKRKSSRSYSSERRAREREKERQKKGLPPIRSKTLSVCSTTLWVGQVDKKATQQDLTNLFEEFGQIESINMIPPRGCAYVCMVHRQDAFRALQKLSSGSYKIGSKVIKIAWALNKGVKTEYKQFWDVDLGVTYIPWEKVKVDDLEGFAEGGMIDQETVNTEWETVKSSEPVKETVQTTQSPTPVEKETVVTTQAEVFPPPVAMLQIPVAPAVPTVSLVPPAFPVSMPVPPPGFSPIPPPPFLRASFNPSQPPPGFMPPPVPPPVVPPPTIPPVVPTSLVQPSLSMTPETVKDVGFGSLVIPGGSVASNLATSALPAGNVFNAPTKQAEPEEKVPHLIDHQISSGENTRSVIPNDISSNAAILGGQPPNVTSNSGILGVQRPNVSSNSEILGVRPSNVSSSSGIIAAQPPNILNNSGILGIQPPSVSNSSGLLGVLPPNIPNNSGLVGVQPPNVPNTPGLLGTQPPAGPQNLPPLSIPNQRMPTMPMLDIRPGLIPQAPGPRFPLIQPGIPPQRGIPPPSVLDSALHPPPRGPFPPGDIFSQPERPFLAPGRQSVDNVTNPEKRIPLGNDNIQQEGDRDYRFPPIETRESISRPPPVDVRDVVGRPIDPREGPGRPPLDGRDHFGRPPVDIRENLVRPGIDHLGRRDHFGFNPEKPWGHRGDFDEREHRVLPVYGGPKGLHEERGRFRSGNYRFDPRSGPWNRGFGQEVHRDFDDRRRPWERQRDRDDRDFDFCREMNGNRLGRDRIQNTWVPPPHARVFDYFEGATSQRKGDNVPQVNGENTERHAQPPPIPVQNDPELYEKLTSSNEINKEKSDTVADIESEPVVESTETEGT

This is one part of the list. Most entries show no effect beyond the scatter of the controls.

Compound in the test: Cc1nc(Nc2ncc(C(=O)Nc3c(C)cccc3Cl)s2)cc(N2CCN(CCO)CC2)n1 [dasatinib]
Put plainly: log2 fold change of tryptic peptide abundance, ligand vs vehicle (limited proteolysis) (log2 ratio); higher = more trypsin-susceptible (destabilized). The settings on record: ligand concentration: 5 uM; sample: K562 cleared lysate.
On to “GAB2 (peptide sequence: NNTVIDELPFK, peptide start residue: 532) (UniProt Q9UQC2)”, for which the log2 fold change was determined as 0.23.

Turning to “PFDN2 (peptide sequence: GKELNEFREK, peptide start residue: 112) (UniProt Q9UHV9)”, the log2 fold change was -0.342.

Regarding “INO80 (peptide sequence: EVVSLLLDDEELEKK, peptide start residue: 1263) (UniProt Q9ULG1)”, the log2 fold change is -0.584.

On to “AKT3 (peptide sequence: LPFYNQDHEK, peptide start residue: 347) (UniProt Q9Y243)”, for which the log2 fold change is 0.347.

For “EXOC7 (peptide sequence: ALEDFADNIKNDPDKEYNMPK, peptide start residue: 475) (UniProt Q9UPT5)”, the log2 fold change is -0.554.

With “ACAD8 (peptide sequence: GTPGLSFGKK, peptide start residue: 223) (UniProt Q9UKU7)”, the log2 fold change is 0.15.

For “HDAC5 (peptide sequence: QHEVQLQK, peptide start residue: 108) (UniProt Q9UQL6)”, the log2 fold change came out at 0.301.

Consider “TBK1 (peptide sequence: AITGVVCYACR, peptide start residue: 417) (UniProt Q9UHD2)”, for which the log2 fold change was 0.308.

Take “UniProt Q9ULK2 (peptide sequence: LHCSDNVDLEEAGK, peptide start residue: 56)”: the log2 fold change was 0.757.

With “SARDH (peptide sequence: EALEQQR, peptide start residue: 926) (UniProt Q9UL12)”, the log2 fold change was -0.00521.

As for “HPS5 (peptide sequence: ALIQSMLEK, peptide start residue: 1111) (UniProt Q9UPZ3)”, the log2 fold change is -0.278.

Consider “BSN (peptide sequence: EAVERLQK, peptide start residue: 3471) (UniProt Q9UPA5)”, for which the log2 fold change is -0.379.

On to “DDX25 (peptide sequence: TAAFVLAMLSR, peptide start residue: 144) (UniProt Q9UHL0)”, for which the log2 fold change was 0.299.

Turning to “CPSF3 (peptide sequence: VMGFLADK, peptide start residue: 466) (UniProt Q9UKF6)”, the log2 fold change was -0.131.

In the case of “SMC3 (peptide sequence: LHTLEEEKEELAQYQKWDK, peptide start residue: 200) (UniProt Q9UQE7)”, the log2 fold change is 0.202.

Turning to “ANAPC10 (peptide sequence: CTTIDFMMYR, peptide start residue: 173) (UniProt Q9UM13)”, the log2 fold change was 0.0401.

On to “SIX4 (peptide sequence: QENGMESASEGQEAHR, peptide start residue: 18) (UniProt Q9UIU6)”, for which the log2 fold change was 0.769.

On to “SLC7A11 (peptide sequence: GGYLQGNVNGR, peptide start residue: 13) (UniProt Q9UPY5)”, for which the log2 fold change was determined as 0.278.

In the case of “UniProt Q9Y224 (peptide sequence: LEYGDNAEK, peptide start residue: 90)”, the log2 fold change was -0.335.

For “SHPK (peptide sequence: VMGSGSALSR, peptide start residue: 427) (UniProt Q9UHJ6)”, the log2 fold change is -0.307.

On to “PCTP (peptide sequence: QSLAIESDGKK, peptide start residue: 157) (UniProt Q9UKL6)”, for which the log2 fold change was -0.379.

Consider “UniProt Q9ULE0 (peptide sequence: HEQAAEKMLKK, peptide start residue: 1038)”, for which the log2 fold change is -0.463.

In the case of “UniProt Q9ULD5 (peptide sequence: DTPFQISSAVQK, peptide start residue: 163)”, the log2 fold change is 0.34.

In the case of “UniProt Q9UPN6 (peptide sequence: QAEPEEKVPHLIDHQISSGENTR, peptide start residue: 763)”, the log2 fold change is -0.26.

In the case of “GTF3C4 (peptide sequence: CFLTYQSCQSLIYRR, peptide start residue: 773) (UniProt Q9UKN8)”, the log2 fold change turned out to be 0.225.

For “SUFU (peptide sequence: GLEINSKPVLPPINPQR, peptide start residue: 315) (UniProt Q9UMX1)”, the log2 fold change turned out to be 0.224.
